Measurements taken from publication PMC8132058.
Like-named read-outs stand apart in the source and are kept apart here. Results are given in words; binding and its absence hold for the method and conditions named. In cells and extracts the contact can be indirect. Some entries that bind do so weakly or less than the wild type. For part of these data: Tags and fused reporters may be left off the sequences shown.

By UniProt entry, the sequences of proteins in these tests, tags left out.
UniProt O94776: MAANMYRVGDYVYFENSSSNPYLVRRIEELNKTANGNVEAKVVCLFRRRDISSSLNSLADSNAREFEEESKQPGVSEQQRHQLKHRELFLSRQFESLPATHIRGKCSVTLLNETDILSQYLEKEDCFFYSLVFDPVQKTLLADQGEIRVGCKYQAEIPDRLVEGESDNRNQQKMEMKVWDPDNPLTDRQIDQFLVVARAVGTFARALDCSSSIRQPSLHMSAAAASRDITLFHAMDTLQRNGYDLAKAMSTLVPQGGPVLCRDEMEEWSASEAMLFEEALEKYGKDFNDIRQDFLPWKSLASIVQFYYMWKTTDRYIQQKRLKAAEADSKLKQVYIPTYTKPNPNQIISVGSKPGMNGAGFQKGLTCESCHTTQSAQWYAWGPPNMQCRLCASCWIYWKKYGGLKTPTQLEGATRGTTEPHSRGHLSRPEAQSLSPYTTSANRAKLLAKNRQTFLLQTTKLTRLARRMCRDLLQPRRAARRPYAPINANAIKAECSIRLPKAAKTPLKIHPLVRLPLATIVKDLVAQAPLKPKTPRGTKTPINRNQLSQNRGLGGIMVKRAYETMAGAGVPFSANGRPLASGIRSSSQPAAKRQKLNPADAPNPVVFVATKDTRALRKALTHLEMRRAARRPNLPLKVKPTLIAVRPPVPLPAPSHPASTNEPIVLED
UniProt Q16531: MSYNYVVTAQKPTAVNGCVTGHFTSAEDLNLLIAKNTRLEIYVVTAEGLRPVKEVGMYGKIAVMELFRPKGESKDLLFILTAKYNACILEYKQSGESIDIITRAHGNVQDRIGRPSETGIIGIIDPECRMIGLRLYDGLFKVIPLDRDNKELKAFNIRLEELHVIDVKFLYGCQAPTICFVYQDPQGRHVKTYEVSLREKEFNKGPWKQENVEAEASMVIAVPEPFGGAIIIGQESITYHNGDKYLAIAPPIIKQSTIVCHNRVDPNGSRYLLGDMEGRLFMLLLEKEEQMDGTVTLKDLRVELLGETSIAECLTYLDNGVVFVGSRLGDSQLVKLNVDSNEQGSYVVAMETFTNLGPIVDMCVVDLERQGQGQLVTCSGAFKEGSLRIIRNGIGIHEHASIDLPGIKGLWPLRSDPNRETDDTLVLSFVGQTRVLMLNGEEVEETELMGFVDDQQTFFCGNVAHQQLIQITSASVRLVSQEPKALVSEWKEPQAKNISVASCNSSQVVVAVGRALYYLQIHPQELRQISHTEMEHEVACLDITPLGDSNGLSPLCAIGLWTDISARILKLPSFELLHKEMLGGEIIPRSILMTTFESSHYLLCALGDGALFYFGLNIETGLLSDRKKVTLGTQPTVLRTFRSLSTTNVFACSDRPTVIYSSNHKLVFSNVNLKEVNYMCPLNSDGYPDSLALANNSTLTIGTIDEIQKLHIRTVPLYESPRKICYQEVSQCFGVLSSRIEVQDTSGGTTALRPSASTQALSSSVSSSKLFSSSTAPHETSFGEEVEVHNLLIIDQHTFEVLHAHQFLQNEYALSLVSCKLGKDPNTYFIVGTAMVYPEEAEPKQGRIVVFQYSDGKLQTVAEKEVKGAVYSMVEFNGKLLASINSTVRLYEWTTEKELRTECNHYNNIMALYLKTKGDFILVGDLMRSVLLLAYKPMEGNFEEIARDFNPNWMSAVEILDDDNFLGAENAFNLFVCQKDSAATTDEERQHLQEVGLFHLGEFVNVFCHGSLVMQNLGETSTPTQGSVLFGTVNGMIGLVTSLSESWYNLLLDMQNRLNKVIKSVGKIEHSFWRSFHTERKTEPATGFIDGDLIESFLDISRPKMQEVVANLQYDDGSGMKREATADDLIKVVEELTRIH
UniProt Q13620: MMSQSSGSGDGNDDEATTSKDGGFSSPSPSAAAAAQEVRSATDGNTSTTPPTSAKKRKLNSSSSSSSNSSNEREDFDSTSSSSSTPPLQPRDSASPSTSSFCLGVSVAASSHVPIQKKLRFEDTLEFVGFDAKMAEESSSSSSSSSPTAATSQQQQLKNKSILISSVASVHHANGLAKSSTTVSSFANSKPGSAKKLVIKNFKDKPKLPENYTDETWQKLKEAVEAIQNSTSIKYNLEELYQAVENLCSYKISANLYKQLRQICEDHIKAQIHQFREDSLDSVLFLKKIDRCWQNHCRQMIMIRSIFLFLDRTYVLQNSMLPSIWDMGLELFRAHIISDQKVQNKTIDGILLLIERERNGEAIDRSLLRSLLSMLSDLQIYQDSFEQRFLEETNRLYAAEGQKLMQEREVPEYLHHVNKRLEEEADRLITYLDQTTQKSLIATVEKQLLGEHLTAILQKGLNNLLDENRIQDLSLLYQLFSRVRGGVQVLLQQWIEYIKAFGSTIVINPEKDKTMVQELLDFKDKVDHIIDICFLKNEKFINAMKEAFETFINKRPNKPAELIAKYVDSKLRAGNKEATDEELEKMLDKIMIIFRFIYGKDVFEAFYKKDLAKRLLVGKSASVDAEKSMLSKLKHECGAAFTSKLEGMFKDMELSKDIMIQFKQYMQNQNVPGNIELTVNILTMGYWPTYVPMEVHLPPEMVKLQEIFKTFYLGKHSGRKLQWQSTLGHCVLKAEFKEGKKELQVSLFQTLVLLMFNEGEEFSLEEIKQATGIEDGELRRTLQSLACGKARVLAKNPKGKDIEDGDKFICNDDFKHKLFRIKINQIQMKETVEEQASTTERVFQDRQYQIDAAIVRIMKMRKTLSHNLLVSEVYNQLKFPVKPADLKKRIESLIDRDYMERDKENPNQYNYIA
UniProt O95863: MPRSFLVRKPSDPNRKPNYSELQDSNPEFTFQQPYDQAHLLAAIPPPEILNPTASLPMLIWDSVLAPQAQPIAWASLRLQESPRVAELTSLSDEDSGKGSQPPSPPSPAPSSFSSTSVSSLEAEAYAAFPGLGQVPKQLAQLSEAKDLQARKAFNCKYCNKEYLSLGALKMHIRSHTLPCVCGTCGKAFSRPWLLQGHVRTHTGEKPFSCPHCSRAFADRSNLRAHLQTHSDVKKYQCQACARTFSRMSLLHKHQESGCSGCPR
UniProt Q92769: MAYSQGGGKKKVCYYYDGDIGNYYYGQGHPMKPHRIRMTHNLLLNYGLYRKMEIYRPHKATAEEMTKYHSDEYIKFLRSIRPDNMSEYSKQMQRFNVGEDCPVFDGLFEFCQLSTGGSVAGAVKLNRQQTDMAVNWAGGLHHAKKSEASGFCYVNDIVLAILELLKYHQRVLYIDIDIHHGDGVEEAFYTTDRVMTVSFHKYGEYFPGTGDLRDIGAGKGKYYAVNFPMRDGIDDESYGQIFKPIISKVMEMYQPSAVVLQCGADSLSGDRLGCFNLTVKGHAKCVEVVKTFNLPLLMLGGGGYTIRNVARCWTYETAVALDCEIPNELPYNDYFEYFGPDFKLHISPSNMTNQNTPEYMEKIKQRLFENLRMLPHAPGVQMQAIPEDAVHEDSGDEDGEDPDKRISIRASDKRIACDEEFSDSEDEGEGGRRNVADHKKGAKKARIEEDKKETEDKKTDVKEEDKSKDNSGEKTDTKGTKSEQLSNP
UniProt Q13547: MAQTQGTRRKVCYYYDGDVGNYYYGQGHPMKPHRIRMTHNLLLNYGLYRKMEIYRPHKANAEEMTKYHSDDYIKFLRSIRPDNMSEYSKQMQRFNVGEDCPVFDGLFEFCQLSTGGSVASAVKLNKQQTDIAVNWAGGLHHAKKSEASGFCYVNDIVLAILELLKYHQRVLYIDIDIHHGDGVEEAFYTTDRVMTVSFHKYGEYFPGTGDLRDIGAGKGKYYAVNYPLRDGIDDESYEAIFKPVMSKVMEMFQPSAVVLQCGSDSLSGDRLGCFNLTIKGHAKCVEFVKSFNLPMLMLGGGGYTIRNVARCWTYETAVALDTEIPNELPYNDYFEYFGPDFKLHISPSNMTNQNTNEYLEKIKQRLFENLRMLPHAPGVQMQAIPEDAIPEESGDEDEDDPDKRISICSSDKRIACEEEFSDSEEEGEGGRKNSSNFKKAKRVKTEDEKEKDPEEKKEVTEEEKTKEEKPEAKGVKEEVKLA
UniProt O15379: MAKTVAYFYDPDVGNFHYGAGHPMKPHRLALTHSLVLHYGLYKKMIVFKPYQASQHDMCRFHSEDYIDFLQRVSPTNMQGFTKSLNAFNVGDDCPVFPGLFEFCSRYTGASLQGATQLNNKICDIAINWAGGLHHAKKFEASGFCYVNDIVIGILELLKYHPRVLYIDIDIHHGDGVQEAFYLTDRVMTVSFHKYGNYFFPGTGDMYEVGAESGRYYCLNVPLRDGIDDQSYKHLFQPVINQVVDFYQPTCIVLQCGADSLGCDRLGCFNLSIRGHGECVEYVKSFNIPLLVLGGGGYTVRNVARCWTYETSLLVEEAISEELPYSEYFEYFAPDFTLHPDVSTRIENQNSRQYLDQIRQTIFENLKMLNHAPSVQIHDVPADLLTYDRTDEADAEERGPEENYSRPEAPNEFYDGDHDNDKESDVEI

Columns and labels:
GST-fused MTA2 = GST-fused MTA2 (UniProt O94776); experiment: pull-down; GST fusion proteins on Glutathione Sepharose 4B beads incubated with in vitro transcribed/translated products; 75 mM NaCl, 50 mM HEPES pH 7.9, 4 °C, 2 h; western blot; only the target purified
GST-fused MTA3 = target: T1, GST-fused MTA3 (UniProt Q9BTC8); experiment: as above
T1 sequence: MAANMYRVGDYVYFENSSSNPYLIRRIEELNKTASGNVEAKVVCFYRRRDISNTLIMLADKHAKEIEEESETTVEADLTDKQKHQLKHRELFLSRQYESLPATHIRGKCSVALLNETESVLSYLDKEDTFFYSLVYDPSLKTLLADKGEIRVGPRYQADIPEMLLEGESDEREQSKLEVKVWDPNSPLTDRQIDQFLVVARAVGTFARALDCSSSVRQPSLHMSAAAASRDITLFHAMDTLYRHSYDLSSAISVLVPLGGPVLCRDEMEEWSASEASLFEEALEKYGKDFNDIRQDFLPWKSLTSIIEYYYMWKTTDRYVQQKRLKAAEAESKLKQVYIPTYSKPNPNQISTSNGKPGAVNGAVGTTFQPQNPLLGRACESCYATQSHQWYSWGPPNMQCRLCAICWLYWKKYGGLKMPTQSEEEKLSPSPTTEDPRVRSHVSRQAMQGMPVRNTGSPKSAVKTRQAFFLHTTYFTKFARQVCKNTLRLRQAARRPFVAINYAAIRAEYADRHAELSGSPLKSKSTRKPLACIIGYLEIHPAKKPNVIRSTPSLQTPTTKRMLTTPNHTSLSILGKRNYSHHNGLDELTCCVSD

GST-fused MTA1 = GST-fused MTA1 (UniProt Q13330); experiment: as above
GST-fused DDB1 = GST-fused DDB1 (UniProt Q16531); experiment: as above
GST-fused CUL4B = GST-fused CUL4B (UniProt Q13620); experiment: as above
[1] = target: DDB1 (endogenous) (human (endogenous in MCF-7, MDA-MB-231, HEK293T)) (UniProt Q16531); experiment: co-IP; endogenous proteins, MCF-7 whole-cell lysates (50 mM Tris-HCl pH 8.0, 150 mM NaCl, 0.5% NP40); IP with anti-CUL4B, anti-DDB1 or anti-ROC1, 12 h at 4 °C, immunoblot
[2] = target: CUL4B (endogenous) (human (endogenous in MCF-7, MDA-MB-231, HEK293T)) (UniProt Q13620); experiment: as above
[3] = target: DDB1 (endogenous) (human (endogenous in MCF-7, MDA-MB-231, HEK293T)) (UniProt Q16531); experiment: as above; remark: listed apart in the source
[4] = target: CUL4B (endogenous) (human (endogenous in MCF-7, MDA-MB-231, HEK293T)) (UniProt Q13620); experiment: as above; remark: listed apart in the source
[5] = target: CUL4B (endogenous) (human (endogenous in MCF-7, MDA-MB-231, HEK293T)) (UniProt Q13620); experiment: co-IP; endogenous proteins, MDA-MB-231 cells; IP with anti-CUL4B, immunoblot

**Q.** With “DDB1, in vitro transcribed/translated (from UniProt Q16531 1-1140)” as the molecule, how does the binding (GST-fused MTA2) read?
**A.** Its binding is “binds”.

**Q.** And the binding (GST-fused MTA3)?
**A.** The binding was “no binding”.

**Q.** And the binding (GST-fused MTA1)?
**A.** The binding was “binds”.

**Q.** With “Snail, in vitro transcribed/translated (from UniProt O95863 1-264)” as the molecule, how does the binding (GST-fused MTA2) read?
**A.** Its binding is “binds”.

**Q.** And the binding (GST-fused MTA3)?
**A.** The binding was “no binding”.

**Q.** And the binding (GST-fused MTA1)?
**A.** The binding was “binds”.

**Q.** What about the binding (GST-fused DDB1) of the same molecule?
**A.** The binding was “binds”.

**Q.** How did the binding (GST-fused MTA2) turn out when “CUL4B, in vitro transcribed/translated (from UniProt Q13620 1-913)” was run?
**A.** Its binding is “binds”.

**Q.** What about the binding (GST-fused MTA3) of the same molecule?
**A.** The binding was “no binding”.

**Q.** What about the binding (GST-fused MTA1) of the same molecule?
**A.** Its binding is “binds”.

**Q.** “HDAC2, in vitro transcribed/translated (from UniProt Q92769 1-488) (enzyme)” was tested. Which binding (GST-fused CUL4B) did it give?
**A.** The binding was “binds”.

**Q.** Which binding [1] does the source give for “HDAC1 (endogenous) (from UniProt Q13547 1-482) (enzyme)” here?
**A.** Its binding is “binds”.

**Q.** And the binding [2]?
**A.** Its binding is “binds”.

**Q.** With “HDAC3, in vitro transcribed/translated (from UniProt O15379 1-428) (enzyme)” as the molecule, how does the binding (GST-fused CUL4B) read?
**A.** Its binding is “binds”.

**Q.** “HDAC2 (endogenous) (from UniProt Q92769 1-488) (enzyme)” was tested. Which binding [1] did it give?
**A.** The binding was “binds”.

**Q.** And the binding [2]?
**A.** Its binding is “binds”.

**Q.** With “HDAC1, in vitro transcribed/translated (from UniProt Q13547 1-482) (enzyme)” as the molecule, how does the binding (GST-fused CUL4B) read?
**A.** Its binding is “binds”.

**Q.** How did the binding [1] turn out when “HDAC3 (endogenous) (from UniProt O15379 1-428) (enzyme)” was run?
**A.** Its binding is “binds”.

**Q.** And the binding [2]?
**A.** Its binding is “binds”.

B1: TBL1 (endogenous) (protein, UniProt O60907 1-577)
chain: MTELAGASSSCCHRPAGRGAMQSVLHHFQRLRGREGGSHFINTSSPRGEAKMSITSDEVNFLVYRYLQESGFSHSAFTFGIESHISQSNINGTLVPPAALISILQKGLQYVEAEISINEDGTVFDGRPIESLSLIDAVMPDVVQTRQQAFREKLAQQQASAAAAAAAATAAATAATTTSAGVSHQNPSKNREATVNGEENRAHSVNNHAKPMEIDGEVEIPSSKATVLRGHESEVFICAWNPVSDLLASGSGDSTARIWNLNENSNGGSTQLVLRHCIREGGHDVPSNKDVTSLDWNTNGTLLATGSYDGFARIWTEDGNLASTLGQHKGPIFALKWNRKGNYILSAGVDKTTIIWDAHTGEAKQQFPFHSAPALDVDWQNNTTFASCSTDMCIHVCRLGCDRPVKTFQGHTNEVNAIKWDPSGMLLASCSDDMTLKIWSMKQEVCIHDLQAHNKEIYTIKWSPTGPATSNPNSNIMLASASFDSTVRLWDIERGVCTHTLTKHQEPVYSVAFSPDGKYLASGSFDKCVHIWNTQSGNLVHSYRGTGGIFEVCWNARGDKVGASASDGSVCVLDLRK
**Q.** With B1 as the molecule, how does the binding [3] read?
**A.** The binding was “binds”.

**Q.** What about the binding [4] of the same molecule?
**A.** Its binding is “binds”.

B2: TBL1, in vitro transcribed/translated (protein, UniProt O60907 1-577)
chain: MTELAGASSSCCHRPAGRGAMQSVLHHFQRLRGREGGSHFINTSSPRGEAKMSITSDEVNFLVYRYLQESGFSHSAFTFGIESHISQSNINGTLVPPAALISILQKGLQYVEAEISINEDGTVFDGRPIESLSLIDAVMPDVVQTRQQAFREKLAQQQASAAAAAAAATAAATAATTTSAGVSHQNPSKNREATVNGEENRAHSVNNHAKPMEIDGEVEIPSSKATVLRGHESEVFICAWNPVSDLLASGSGDSTARIWNLNENSNGGSTQLVLRHCIREGGHDVPSNKDVTSLDWNTNGTLLATGSYDGFARIWTEDGNLASTLGQHKGPIFALKWNRKGNYILSAGVDKTTIIWDAHTGEAKQQFPFHSAPALDVDWQNNTTFASCSTDMCIHVCRLGCDRPVKTFQGHTNEVNAIKWDPSGMLLASCSDDMTLKIWSMKQEVCIHDLQAHNKEIYTIKWSPTGPATSNPNSNIMLASASFDSTVRLWDIERGVCTHTLTKHQEPVYSVAFSPDGKYLASGSFDKCVHIWNTQSGNLVHSYRGTGGIFEVCWNARGDKVGASASDGSVCVLDLRK
**Q.** B2 was tested. Which binding (GST-fused DDB1) did it give?
**A.** The binding was “binds”.

B3: Twist2 (endogenous) (protein, UniProt Q8WVJ9 1-160)
chain: MEEGSSSPVSPVDSLGTSEEELERQPKRFGRKRRYSKKSSEDGSPTPGKRGKKGSPSAQSFEELQSQRILANVRERQRTQSLNEAFAALRKIIPTLPSDKLSKIQTLKLAARYIDFLYQVLQSDEMDNKMTSCSYVAHERLSYAFSVWRMEGAWSMSASH
**Q.** How did the binding [5] turn out when B3 was run?
**A.** Its binding is “binds”.

B4: ZEB2, in vitro transcribed/translated (protein, UniProt O60315 1-1214)
chain: MKQPIMADGPRCKRRKQANPRRKNVVNYDNVVDTGSETDEEDKLHIAEDDGIANPLDQETSPASVPNHESSPHVSQALLPREEEEDEIREGGVEHPWHNNEILQASVDGPEEMKEDYDTMGPEATIQTAINNGTVKNANCTSDFEEYFAKRKLEERDGHAVSIEEYLQRSDTAIIYPEAPEELSRLGTPEANGQEENDLPPGTPDAFAQLLTCPYCDRGYKRLTSLKEHIKYRHEKNEENFSCPLCSYTFAYRTQLERHMVTHKPGTDQHQMLTQGAGNRKFKCTECGKAFKYKHHLKEHLRIHSGEKPYECPNCKKRFSHSGSYSSHISSKKCIGLISVNGRMRNNIKTGSSPNSVSSSPTNSAITQLRNKLENGKPLSMSEQTGLLKIKTEPLDFNDYKVLMATHGFSGTSPFMNGGLGATSPLGVHPSAQSPMQHLGVGMEAPLLGFPTMNSNLSEVQKVLQIVDNTVSRQKMDCKAEEISKLKGYHMKDPCSQPEEQGVTSPNIPPVGLPVVSHNGATKSIIDYTLEKVNEAKACLQSLTTDSRRQISNIKKEKLRTLIDLVTDDKMIENHNISTPFSCQFCKESFPGPIPLHQHERYLCKMNEEIKAVLQPHENIVPNKAGVFVDNKALLLSSVLSEKGMTSPINPYKDHMSVLKAYYAMNMEPNSDELLKISIAVGLPQEFVKEWFEQRKVYQYSNSRSPSLERSSKPLAPNSNPPTKDSLLPRSPVKPMDSITSPSIAELHNSVTNCDPPLRLTKPSHFTNIKPVEKLDHSRSNTPSPLNLSSTSSKNSHSSSYTPNSFSSEELQAEPLDLSLPKQMKEPKSIIATKNKTKASSISLDHNSVSSSSENSDEPLNLTFIKKEFSNSNNLDNKSTNPVFSMNPFSAKPLYTALPPQSAFPPATFMPPVQTSIPGLRPYPGLDQMSFLPHMAYTYPTGAATFADMQQRRKYQRKQGFQGELLDGAQDYMSGLDDMTDSDSCLSRKKIKKTESGMYACDLCDKTFQKSSSLLRHKYEHTGKRPHQCQICKKAFKHKHHLIEHSRLHSGEKPYQCDKCGKRFSHSGSYSQHMNHRYSYCKREAEEREAAEREAREKGHLEPTELLMNRAYLQSITPQGYSDSEERESMPRDGESEKEHEKEGEDGYGKLGRQDGDEEFEEEEEESENKSMDTDPETIRDEEETGDHSMDDSSEDGKMETKSDHEEDNMEDGM
**Q.** With B4 as the molecule, how does the binding (GST-fused MTA2) read?
**A.** Its binding is “binds”.

**Q.** And the binding (GST-fused MTA3)?
**A.** Its binding is “no binding”.

**Q.** What about the binding (GST-fused MTA1) of the same molecule?
**A.** The binding was “binds”.

**Q.** And the binding (GST-fused DDB1)?
**A.** Its binding is “binds”.
